Our source for the binding values is doi:10.1101/2021.01.14.426738.

By UniProt entry, the sequences of proteins in these tests, tags left out.
UniProt P38159: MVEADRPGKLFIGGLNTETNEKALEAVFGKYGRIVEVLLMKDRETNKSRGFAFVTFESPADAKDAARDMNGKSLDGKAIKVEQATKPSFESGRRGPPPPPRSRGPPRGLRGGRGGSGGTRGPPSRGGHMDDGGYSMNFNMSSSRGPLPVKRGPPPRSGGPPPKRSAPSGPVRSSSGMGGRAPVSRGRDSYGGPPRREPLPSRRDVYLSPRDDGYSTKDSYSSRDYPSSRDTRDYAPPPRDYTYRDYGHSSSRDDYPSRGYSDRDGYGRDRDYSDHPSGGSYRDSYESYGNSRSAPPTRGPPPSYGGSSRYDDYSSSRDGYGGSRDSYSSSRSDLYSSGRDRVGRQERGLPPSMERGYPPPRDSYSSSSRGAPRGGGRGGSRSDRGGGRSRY
UniProt O15392: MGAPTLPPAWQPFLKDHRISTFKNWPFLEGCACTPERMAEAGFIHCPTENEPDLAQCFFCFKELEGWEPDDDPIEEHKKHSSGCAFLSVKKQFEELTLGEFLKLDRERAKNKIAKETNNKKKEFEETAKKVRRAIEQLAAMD
UniProt Q9NQS7: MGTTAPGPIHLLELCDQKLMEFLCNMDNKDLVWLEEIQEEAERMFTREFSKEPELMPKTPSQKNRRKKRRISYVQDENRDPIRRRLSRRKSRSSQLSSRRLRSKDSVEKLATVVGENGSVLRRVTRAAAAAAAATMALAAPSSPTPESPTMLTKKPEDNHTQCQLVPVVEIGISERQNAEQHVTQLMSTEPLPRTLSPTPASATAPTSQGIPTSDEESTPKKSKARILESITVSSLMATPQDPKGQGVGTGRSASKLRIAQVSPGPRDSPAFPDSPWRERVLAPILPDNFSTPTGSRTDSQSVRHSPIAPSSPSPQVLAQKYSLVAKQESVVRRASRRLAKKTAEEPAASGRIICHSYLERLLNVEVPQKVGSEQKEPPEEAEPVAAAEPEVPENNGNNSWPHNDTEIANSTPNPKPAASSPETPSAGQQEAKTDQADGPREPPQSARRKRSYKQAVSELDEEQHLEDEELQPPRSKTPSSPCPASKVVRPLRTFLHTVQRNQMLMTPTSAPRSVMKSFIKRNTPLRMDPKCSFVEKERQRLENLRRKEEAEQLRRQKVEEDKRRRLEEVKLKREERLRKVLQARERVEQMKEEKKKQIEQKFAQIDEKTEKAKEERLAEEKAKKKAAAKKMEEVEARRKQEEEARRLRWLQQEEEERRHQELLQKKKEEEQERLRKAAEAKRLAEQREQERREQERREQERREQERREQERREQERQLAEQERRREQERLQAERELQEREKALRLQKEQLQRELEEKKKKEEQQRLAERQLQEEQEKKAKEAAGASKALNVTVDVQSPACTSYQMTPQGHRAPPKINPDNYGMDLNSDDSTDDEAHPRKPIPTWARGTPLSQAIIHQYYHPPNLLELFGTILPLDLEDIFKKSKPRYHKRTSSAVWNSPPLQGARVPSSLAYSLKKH

Results are given in words; binding and its absence hold for the method and conditions named. Binding seen in cells or lysates may run through a third protein. Some results given as binding are weak or reduced against the parent protein; the word gives no strength. For part of these data: Where a sequence is shown, tags or fusion partners need not be part of it.

One test has as its target Flag-tagged RBMX (human) (UniProt P38159). The test is described as follows: co-IP.
Test [1] deals with Aurora B (endogenous) (human (endogenous in HeLa)) (UniProt Q96GD4). The test is described as follows: co-IP.
The target in test [2] is T1, Borealin (endogenous) (human (endogenous in HeLa)) (UniProt Q53HL2).
T1 sequence: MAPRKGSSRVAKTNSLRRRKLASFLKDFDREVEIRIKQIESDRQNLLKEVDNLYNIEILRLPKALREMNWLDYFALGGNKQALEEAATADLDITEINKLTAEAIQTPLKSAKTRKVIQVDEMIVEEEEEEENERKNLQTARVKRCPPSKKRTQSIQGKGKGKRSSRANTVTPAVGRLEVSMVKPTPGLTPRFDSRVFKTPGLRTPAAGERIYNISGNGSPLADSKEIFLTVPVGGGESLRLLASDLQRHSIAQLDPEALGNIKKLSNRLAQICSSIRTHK
The test is described as follows: co-IP.

The target in test [3] is Survivin (endogenous) (human (endogenous in HeLa)) (UniProt O15392). The test can be described thus: proximity ligation.
Test [4] concerns the target RBMX (endogenous) (human (endogenous in HeLa)) (UniProt P38159). The test can be described thus: co-IP.
Test [5] has as its target T2, Borealin (endogenous) (human (endogenous in HeLa)), Q53HL2.
T2 chain: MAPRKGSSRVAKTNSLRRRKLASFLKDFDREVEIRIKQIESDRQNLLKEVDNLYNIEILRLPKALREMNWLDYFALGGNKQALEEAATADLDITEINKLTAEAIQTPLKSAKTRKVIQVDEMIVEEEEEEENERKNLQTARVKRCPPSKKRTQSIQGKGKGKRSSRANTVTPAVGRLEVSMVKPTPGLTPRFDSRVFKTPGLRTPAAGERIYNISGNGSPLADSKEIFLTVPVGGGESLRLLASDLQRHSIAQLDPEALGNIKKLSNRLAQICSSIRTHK
The test can be described thus: co-IP. The settings on record: remark: other sources report otherwise.

As for “HA-tagged Survivin (from UniProt O15392 1-142)”, the binding result with Flag-tagged RBMX (human) is given as “binds”.
As for “RBMX (endogenous) (from UniProt P38159 1-391)”, the binding entry in test [1] and in test [2] was “binds” throughout.
With “HA-tagged INCENP (from UniProt Q9NQS7 1-918)”, the binding entry with Flag-tagged RBMX (human) is “binds”.
Regarding LAP-RBMX (from UniProt P38159 1-391), in test [3], the binding entry was “binds”.
For “Aurora B (endogenous) (from UniProt Q96GD4 1-344) (enzyme)”, in test [4], the binding entry is given as “binds”.
As to “HA-tagged Aurora-B (from UniProt Q96GD4 1-344) (enzyme)”, the binding result with Flag-tagged RBMX (human) was “binds”.

B1: HA-tagged Borealin (protein, UniProt Q53HL2 1-280)
chain: MAPRKGSSRVAKTNSLRRRKLASFLKDFDREVEIRIKQIESDRQNLLKEVDNLYNIEILRLPKALREMNWLDYFALGGNKQALEEAATADLDITEINKLTAEAIQTPLKSAKTRKVIQVDEMIVEEEEEEENERKNLQTARVKRCPPSKKRTQSIQGKGKGKRSSRANTVTPAVGRLEVSMVKPTPGLTPRFDSRVFKTPGLRTPAAGERIYNISGNGSPLADSKEIFLTVPVGGGESLRLLASDLQRHSIAQLDPEALGNIKKLSNRLAQICSSIRTHK
Regarding B1, in the test with Flag-tagged RBMX (human), the binding result was “binds”.

B2: Aurora B (endogenous), Q96GD4 1-344 (enzyme)
chain: MAQKENSYPWPYGRQTAPSGLSTLPQRVLRKEPVTPSALVLMSRSNVQPTAAPGQKVMENSSGTPDILTRHFTIDDFEIGRPLGKGKFGNVYLAREKKSHFIVALKVLFKSQIEKEGVEHQLRREIEIQAHLHHPNILRLYNYFYDRRRIYLILEYAPRGELYKELQKSCTFDEQRTATIMEELADALMYCHGKKVIHRDIKPENLLLGLKGELKIADFGWSVHAPSLRRKTMCGTLDYLPPEMIEGRMHNEKVDLWCIGVLCYELLVGNPPFESASHNETYRRIVKVDLKFPASVPMGAQDLISKLLRHNPSERLPLAQVSAHPWVRANSRRVLPPSALQSVA
Take B2: in test [5], the binding entry is listed as “binds”.
